From publication PMC6239283
These are yes or no findings as the source states them, for the method shown. For part of these data: Binding seen in cells or lysates may run through a third protein. Some binding calls cover weakened binding; strength is not graded here. Where a sequence is shown, tags or fusion partners need not be part of it. Blank lines part the entries; values can stand above or below the binder they belong to.

Experiments:
[1] = biological target: T1, OsTGA2 (BiFC split-YFP fusion) (rice (Oryza sativa)) (UniProt Q6IVC2); assay: split reporter; BiFC in rice protoplasts transfected using PEG; OsTGAs fused to cYFP (and nYFP for dimer tests), NHs fused to nYFP; reconstituted YFP seen by confocal microscopy
T1 sequence: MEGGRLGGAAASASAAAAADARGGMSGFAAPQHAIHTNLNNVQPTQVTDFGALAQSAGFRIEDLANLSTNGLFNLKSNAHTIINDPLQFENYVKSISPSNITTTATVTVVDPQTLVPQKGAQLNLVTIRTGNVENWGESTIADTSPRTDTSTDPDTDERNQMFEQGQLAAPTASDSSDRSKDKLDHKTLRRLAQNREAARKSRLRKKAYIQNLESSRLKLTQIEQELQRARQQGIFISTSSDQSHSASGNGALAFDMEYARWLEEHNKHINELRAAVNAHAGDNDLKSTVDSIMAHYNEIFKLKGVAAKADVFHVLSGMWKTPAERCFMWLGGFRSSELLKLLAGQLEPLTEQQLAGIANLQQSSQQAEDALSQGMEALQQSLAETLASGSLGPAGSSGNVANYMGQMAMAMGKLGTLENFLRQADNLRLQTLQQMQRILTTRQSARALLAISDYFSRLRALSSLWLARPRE

[2] = biological target: T2, OsTGA3 (BiFC split-YFP fusion) (rice (Oryza sativa)) (UniProt Q6IVC3); assay: as above
T2 sequence: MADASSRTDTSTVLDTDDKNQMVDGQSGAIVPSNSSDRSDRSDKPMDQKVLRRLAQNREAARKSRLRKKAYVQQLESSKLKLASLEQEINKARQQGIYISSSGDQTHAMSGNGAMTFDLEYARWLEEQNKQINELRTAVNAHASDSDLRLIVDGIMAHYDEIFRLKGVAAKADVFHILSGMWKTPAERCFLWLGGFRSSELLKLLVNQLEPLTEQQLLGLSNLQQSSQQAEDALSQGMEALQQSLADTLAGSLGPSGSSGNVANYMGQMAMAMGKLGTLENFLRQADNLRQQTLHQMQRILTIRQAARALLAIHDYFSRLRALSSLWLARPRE

[3] = biological target: T3, OsTGA5 (BiFC split-YFP fusion) (rice (Oryza sativa)) (UniProt Q0JNL3); assay: as above
T3 sequence: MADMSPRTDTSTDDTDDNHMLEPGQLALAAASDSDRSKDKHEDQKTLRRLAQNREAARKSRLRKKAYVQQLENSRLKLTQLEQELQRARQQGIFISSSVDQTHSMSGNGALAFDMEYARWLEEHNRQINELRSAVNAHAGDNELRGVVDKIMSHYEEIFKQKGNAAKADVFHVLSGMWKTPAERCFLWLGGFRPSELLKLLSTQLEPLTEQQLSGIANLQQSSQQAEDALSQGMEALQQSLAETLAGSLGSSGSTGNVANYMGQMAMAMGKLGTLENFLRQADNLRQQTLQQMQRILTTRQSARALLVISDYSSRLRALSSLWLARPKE

[4] = biological target: T4, OsTGA3 (yeast two-hybrid fusion) (rice (Oryza sativa)) (UniProt Q6IVC3); assay: two-hybrid; … Y2H system (Clontech); OsTGAs in pGBKT7 (bait), NHs or OsTGAs in pGADT7 (prey); co-transformed into yeast; growth on SD without leucine, tryptophan and histidine with 1 to 10 mM 3-AT; images on the third day
T4 sequence: T2 sequence

[5] = biological target: T5, OsTGA2 (yeast two-hybrid fusion) (rice (Oryza sativa)) (UniProt Q6IVC2); assay: as above
T5 sequence: T1 sequence

[6] = biological target: T6, OsTGA5 (yeast two-hybrid fusion) (rice (Oryza sativa)) (UniProt Q0JNL3); assay: as above
T6 sequence: T3 sequence

binding [1]: binds weakly
binding [2]: binds weakly
binding [3]: binds weakly
B1: OsNH2, rice NPR1 homolog 2 (BiFC nYFP fusion) (protein, UniProt Q0JJ01 1-635)
chain: MPARSAVVVIAMEPSSSITIASSSSYLSNGSSPCSVSLAPPGAGAVAAQAAPVAAGEGGGGGGGGGGGGSSSVEVVSLNRLSANLERLLLDSDLDCSDADVDVADGGPPVPVHRCILAARSTFFYNLFAARGRGGDGAAGGGGGGGGGGGERTGGRPRYKMEELVPGGRVGRDAFLSLLGYLYTGKLRPAPDDVVSCADPMCPHDSCPPAIRFNVEQMYAAWAFKITELISLFQRRLLNFVDKTLVEDVLPILQVAFHSELTPVLEKCIRRIARSNLDNVSLDKELPPEVAVQIKEIRQKSQPNEGDTVISDPVHEKRVRRIHRALDSDDVELVKLLLNESEITLDDANALHYAAAYCDSKVVSELLDLRLANLNLKNSRGYTALHLAAMRREPAIIMCLLNKGAAVSQLTADGQSAMSICRRLTRMKDYNTKMEQGQESNKDRLCIDILDREMIRKPMAVEDSVTSPLLADDLHMKLLYLENRVAFARLFFPAEAKVAMQIAQADTTPEFGIVPAASTSGKLKEVDLNETPVTQNKRLRSRVDALMKTVELGRRYFPNCSQVLDKFLEDDLPDSPDALDLQNGTSDEQNVKRMRFCELKEDVRKAFSKDRADNSMFSILSSSSSSSPPPKVAKK

binding [4]: binds
binding [5]: binds
binding [6]: binds
B2: OsNH3, rice NPR1 homolog 3 (yeast two-hybrid fusion) (protein, UniProt Q75HA6 1-589)
chain: METSTISFSSSSPPSPPPPQPAPGDIDAVSLGRLSRNLENLLDPAFLNCADAEIVLASGGGDPGGGAVVGVHRCILAARSRFFYDHFSSAPAPAPATAGDKPQLDLDGLVPGGRHIGRDALVAVLSYLYTGRLRSAPPEAAACLDDGCSHDACRPAIDFVVESTYAASGFQISELVSLFQRRLSDFVNKALAEDILPILVVASTCHLPELLNQCIQRVANSNLDNRYLEKRLPDDLYAKLKEFRVPDEPHSGILDPEHEKRVRNIHKALDSDDVDLVGMLLKESPVTLDDAFAIHYAAAYCEPKVLAELLKLESANVNLKNSSGYTPLHMACMRREPDIIVSLIEKGASVLERTQDGRDALTICKRLTREKDRNEKSEKCKERSKAYLCIGVLQQEIKRRPQILEDQMSAEESIATPLLVDNFHMRLLNLENRVAFARIFFPSEAKLVMRIAQADSTQEFAGLTSANFSKLKEVDLNETPTMQNRRLRERLDALTKTVELGRRYFPHCSEVLDKFLNEESTDLILLESGTAEDQQTKRMRFSELREDVRKAFTKDKAAGAAISSSTSASSSPRYETKLRPGNKKGKLSR
